Source: PubChem BioAssay AID1259254 (NCATS, 2017)

Aim: 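Gene knock-downs that lead to re-replication, shown by excess G2 DNA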 (primary screen)
Cell system: human HCT116 colorectal cancer cells
Reagents: single siRNA against human genes
Time to read-out: 3 days
Read-out: 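Nuclei stained with Hoechst and imaged; cell-cycle phase assigned by DNA content; G2 share scaled per plate, non-targeting siRNA 0%, GMNN siRNA 100%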
Scale: G2 robust z-score and G2 cells, % of GMNN control: higher = more G2 cells, more excess DNA replication; raw share of cells in G2: higher = larger share of cells with G2 DNA content
Hit rule: 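Active siRNAs have a G2 robust z of 5 or more median absolute deviations over the median, which in these data means about 38% or higher of GMNN control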
This is an unselected part of about 59,000 deposited reagents. Of all reagents, about 1,550 (2.6%) are marked active. 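G2 share is only a proxy for re-replication; each gene was hit by three separate siRNAs, and active genes were retested.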 Raw values are not corrected between plates. Unmarked entries are inactive. The numbers tell different reagents against one gene apart. Not given: the amount of reagent.

target gene	reagent no.	G2 robust z-score	G2 cells, % of GMNN control	raw share of cells in G2 (%)
GDPD1	1	1.05	10.3	10.4
GDPD1	2	0.626	7.37	6.98
GDPD1	3	-0.799	-2.66	3.92
TMEM176A	1	0.793	8.55	5.86
TMEM176A	2	2.6	21.2	12.7
TMEM176A	3	2.64	21.6	13.1
CCSER1	1	0.511	6.56	6.2
CCSER1	2	-0.32	0.717	3.8
CCSER1	3	0.314	5.18	6.94
SALL2	1	1.17	11.2	8.84
SALL2	2	1.67	14.7	10.3
SALL2	3	-0.0138	2.87	5.1
OR8U3	1	-0.000967	2.96	4.65
OR8U3	2	2.43	20	9.99
OR8U3	3	-0.457	-0.25	3.11
CIB2	1	13.2 (active)	95.7	35.9
CIB2	2	0.637	7.45	6.55
CIB2	3	-1.06	-4.48	2.15
SLAMF1	1	0.31	5.15	5.66
SLAMF1	2	-0.675	-1.78	3.94
SLAMF1	3	-1.12	-4.9	4.03
H2AB2	1	1.26	11.9	8.2
H2AB2	2	-0.589	-1.18	2.97
H2AB2	3	-0.657	-1.66	2.56
MYH2	1	3.75	29.4	17.1
MYH2	2	-0.678	-1.8	4.66
MYH2	3	0.518	6.61	5.38
MPZL1	1	-1.11	-4.82	2.98
MPZL1	2	4.12	31.9	16.5
MPZL1	3	-0.549	-0.892	4.13
SACK1G	1	0.896	9.27	7.17
SACK1G	2	-0.316	0.743	3.54
SACK1G	3	0.209	4.44	4.44
CHEK1	1	0.0454	3.29	6.69
CHEK1	2	0.614	7.29	7.87
CHEK1	3	-1.01	-4.12	2.57
H2BC21	1	-0.219	1.43	5.76
H2BC21	2	0.899	9.29	7.58
H2BC21	3	-0.291	0.917	3.67
VSNL1	1	-0.668	-1.73	2.77
VSNL1	2	1.08	10.6	9.79
VSNL1	3	1.68	14.8	8.48
FSD2	1	0.875	9.12	7.93
FSD2	2	4.84	37	22.8
FSD2	3	0.426	5.96	7.52
AMDHD1	1	-0.381	0.284	3.92
AMDHD1	2	0.146	3.99	4.15
AMDHD1	3	0.0718	3.47	4.28
PFKP	1	-0.78	-2.52	4.77
PFKP	2	-1.27	-5.94	3.41
PFKP	3	-0.821	-2.81	3.04
LGALS8	1	-1.21	-5.56	2.61
LGALS8	2	-1.25	-5.8	1.93
LGALS8	3	-0.742	-2.25	2.54
OR4K17	1	-0.797	-2.64	2.87
OR4K17	2	-0.00572	2.93	4.68
OR4K17	3	-0.544	-0.862	4.26
TMEM182	1	-0.467	-0.32	4.05
TMEM182	2	0.955	9.68	6.17
TMEM182	3	-0.168	1.79	3.23
CYP4F3	1	-0.0186	2.84	4.13
CYP4F3	2	2.05	17.4	12.1
CYP4F3	3	-0.486	-0.45	5.29
TCTN2	1	-0.788	-2.57	3.38
TCTN2	2	1.9	16.4	11.5
TCTN2	3	-0.82	-2.8	1.61
COPS4	1	1.98	16.9	10.3
COPS4	2	1.86	16	10.6
COPS4	3	0.17	4.16	4.57
KLRK1	1	-0.18	1.7	5.65
KLRK1	2	-0.515	-0.656	3.86
KLRK1	3	-0.246	1.24	3.64
AAMP	1	3.16	25.2	17.1
AAMP	2	2.02	17.2	10.4
AAMP	3	0.0343	3.21	4.78
NCF1	1	0.488	6.4	6.11
NCF1	2	-0.419	0.0208	3.18
NCF1	3	2.72	22.1	9.34
PLA2G15	1	-0.557	-0.95	3.87
PLA2G15	2	0.158	4.08	5.32
PLA2G15	3	-1.53	-7.83	2.61
MYCBP	1	-0.454	-0.224	3.56
MYCBP	2	-0.389	0.227	2.87
MYCBP	3	-0.613	-1.34	5.3
POLD1	1	1.61	14.3	9.91
POLD1	2	4.27	33	17.3
POLD1	3	4.07	31.6	14.7

Entries above whose target name begins with F or f:
target gene	reagent no.	G2 robust z-score	G2 cells, % of GMNN control	raw share of cells in G2 (%)
FSD2	1	0.875	9.12	7.93
FSD2	2	4.84	37	22.8
FSD2	3	0.426	5.96	7.52
